PubChem BioAssay AID1508597, Cure First – 2020

- Aim: 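Knock-downs altering ovarian cancer cell survival with or without PARP inhibitor rucaparib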 (primary screen)
- System: human ovarian carcinoma lines grown from tumours: OCI-P5x (papillary serous) and OCI-C5x (clear cell)
- Knock-down reagent: siRNA pool against human genes, 1.25 pmol siRNA per well
- Timing: 72 h or 96 h, depending on the cell culture
- Treatment: rucaparib 20 µM (about IC30) or vehicle, present until read-out
- Read-out: 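Luminescent ATP-based viability assay read 72 or 96 h after transfection, depending on culture, given as normalised percent viability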
- Reading the numbers: viability, normalised: higher = more viable cells remaining
- Active means: 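Active when normalised viability falls below 80 percent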
- Meaning of the calls: active = viability under 80%; inactive = viability 80% or more
This is a random part of about 2,100 reagents. 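Calls flag viability under 80% in either arm, not effects specific to rucaparib; the reference for percent is not stated.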 Reagent sequences are not shown. Not stated in the record: the 100% reference.

For PDE8B, rucaparib or vehicle Rucaparib, cell line OCI-C5x (clear cell), technical replicate 1, the values are viability, normalised (%) = 60.7; active. With PDE8B, rucaparib or vehicle Rucaparib, cell line OCI-C5x (clear cell), technical replicate 2, the entry reads viability, normalised (%) = 74.7; active. PDE8B, rucaparib or vehicle Rucaparib, cell line OCI-C5x (clear cell), technical replicate 3 showed viability, normalised (%) = 51.6; active. With PDE8B, rucaparib or vehicle Rucaparib, cell line OCI-P5x (serous), technical replicate 1, the values are viability, normalised (%) = 52.7; active. PDE8B, rucaparib or vehicle Rucaparib, cell line OCI-P5x (serous), technical replicate 2 scored viability, normalised (%) = 56.7; active. PDE8B, rucaparib or vehicle Rucaparib, cell line OCI-P5x (serous), technical replicate 3 gave viability, normalised (%) = 48.4; active.

PDE8B, rucaparib or vehicle Vehicle, cell line OCI-C5x (clear cell), technical replicate 1 scored viability, normalised (%) = 47.9; active. For PDE8B, rucaparib or vehicle Vehicle, cell line OCI-C5x (clear cell), technical replicate 2, the entry reads viability, normalised (%) = 56.4; active. PDE8B, rucaparib or vehicle Vehicle, cell line OCI-C5x (clear cell), technical replicate 3 scored viability, normalised (%) = 36.8; active. PDE8B, rucaparib or vehicle Vehicle, cell line OCI-P5x (serous), technical replicate 1 gave viability, normalised (%) = 58.1; active. With PDE8B, rucaparib or vehicle Vehicle, cell line OCI-P5x (serous), technical replicate 2, the entry reads viability, normalised (%) = 64.4; active. PDE8B, rucaparib or vehicle Vehicle, cell line OCI-P5x (serous), technical replicate 3 scored viability, normalised (%) = 65.7; active.

PKN3, rucaparib or vehicle Rucaparib, cell line OCI-C5x (clear cell), technical replicate 1 showed viability, normalised (%) = 45.5; active. For PKN3, rucaparib or vehicle Rucaparib, cell line OCI-C5x (clear cell), technical replicate 2, the values are viability, normalised (%) = 51.6; active. PKN3, rucaparib or vehicle Rucaparib, cell line OCI-C5x (clear cell), technical replicate 3 showed viability, normalised (%) = 67.3; active. For PKN3, rucaparib or vehicle Rucaparib, cell line OCI-P5x (serous), technical replicate 1 the deposit lists viability, normalised (%) = 48.3; active. With PKN3, rucaparib or vehicle Rucaparib, cell line OCI-P5x (serous), technical replicate 2, the values are viability, normalised (%) = 60.4; active. For PKN3, rucaparib or vehicle Rucaparib, cell line OCI-P5x (serous), technical replicate 3, the values are viability, normalised (%) = 62.7; active.

With PKN3, rucaparib or vehicle Vehicle, cell line OCI-C5x (clear cell), technical replicate 1, the values are viability, normalised (%) = 56; active. PKN3, rucaparib or vehicle Vehicle, cell line OCI-C5x (clear cell), technical replicate 2 gave viability, normalised (%) = 63.7; active. PKN3, rucaparib or vehicle Vehicle, cell line OCI-C5x (clear cell), technical replicate 3 showed viability, normalised (%) = 52.9; active. For PKN3, rucaparib or vehicle Vehicle, cell line OCI-P5x (serous), technical replicate 1, the values are viability, normalised (%) = 59.8; active. For PKN3, rucaparib or vehicle Vehicle, cell line OCI-P5x (serous), technical replicate 2 the deposit lists viability, normalised (%) = 54; active. PKN3, rucaparib or vehicle Vehicle, cell line OCI-P5x (serous), technical replicate 3 showed viability, normalised (%) = 53.5; active.

For ZBTB7A, rucaparib or vehicle Rucaparib, cell line OCI-C5x (clear cell), technical replicate 1, the values are viability, normalised (%) = 57.5; active. With ZBTB7A, rucaparib or vehicle Rucaparib, cell line OCI-C5x (clear cell), technical replicate 2, the entry reads viability, normalised (%) = 53; active. With ZBTB7A, rucaparib or vehicle Rucaparib, cell line OCI-C5x (clear cell), technical replicate 3, the entry reads viability, normalised (%) = 53.7; active. For ZBTB7A, rucaparib or vehicle Rucaparib, cell line OCI-P5x (serous), technical replicate 1, the entry reads viability, normalised (%) = 67.6; active. With ZBTB7A, rucaparib or vehicle Rucaparib, cell line OCI-P5x (serous), technical replicate 2 the deposit lists viability, normalised (%) = 42.3; active. For ZBTB7A, rucaparib or vehicle Rucaparib, cell line OCI-P5x (serous), technical replicate 3 the deposit lists viability, normalised (%) = 74.2; active.

With ZBTB7A, rucaparib or vehicle Vehicle, cell line OCI-C5x (clear cell), technical replicate 1, the values are viability, normalised (%) = 44.6; active. ZBTB7A, rucaparib or vehicle Vehicle, cell line OCI-C5x (clear cell), technical replicate 2 gave viability, normalised (%) = 40.8; active. ZBTB7A, rucaparib or vehicle Vehicle, cell line OCI-C5x (clear cell), technical replicate 3 showed viability, normalised (%) = 44.6; active. ZBTB7A, rucaparib or vehicle Vehicle, cell line OCI-P5x (serous), technical replicate 1 showed viability, normalised (%) = 77; active. For ZBTB7A, rucaparib or vehicle Vehicle, cell line OCI-P5x (serous), technical replicate 2, the entry reads viability, normalised (%) = 92.9; inactive. With ZBTB7A, rucaparib or vehicle Vehicle, cell line OCI-P5x (serous), technical replicate 3, the values are viability, normalised (%) = 96.7; inactive.

Quoted from the listing for reference:
ZBTB7A, rucaparib or vehicle Vehicle, cell line OCI-C5x (clear cell), technical replicate 1: viability, normalised (%) = 44.6; Outcome = active
ZBTB7A, rucaparib or vehicle Vehicle, cell line OCI-C5x (clear cell), technical replicate 2: viability, normalised (%) = 40.8; Outcome = active
ZBTB7A, rucaparib or vehicle Vehicle, cell line OCI-C5x (clear cell), technical replicate 3: viability, normalised (%) = 44.6; Outcome = active
ZBTB7A, rucaparib or vehicle Vehicle, cell line OCI-P5x (serous), technical replicate 1: viability, normalised (%) = 77; Outcome = active
ZBTB7A, rucaparib or vehicle Vehicle, cell line OCI-P5x (serous), technical replicate 2: viability, normalised (%) = 92.9; Outcome = inactive
